Assay results taken from PubChem BioAssay AID662 (National Center for Advancing Translational Sciences (NCATS), 2007).
The other results are listed elsewhere or left out. These are further read-outs of the screen, such as a control signal, another cell line or another target. No call is given for them. The list favours compounds with an active or inconclusive main result. The note in brackets gives the kind of curve behind each potency; many fits are weak.

Experiment: Cell signaling CRE-BLA (Fsk stim)
Details: CHO CRE-bla reporter (cAMP response element driving beta-lactamase), forskolin EC10, beta-lactamase ratio; measured here: 460 nm blue channel
Procedure, shortened: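 Beta-lactamase reporter under a cAMP responsive element in CHO cells; compounds tested in titration series against EC10 NKH 477, 3 h at 37 °C. Read-out: CCF4 FRET ratio 460nm/530nm (excitation 405nm) giving %Activity, fitted to AC50.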

Which AC50 does the source give for `O=C(CCS(=O)(=O)Cc1ccccc1)Nc1nc2c(s1)CCCC2` here?
Its AC50 is 25.1 µM [rising, single point].

Which AC50 does the source give for `CC1=CC(C)(C)Nc2ccc(OC(=O)c3ccco3)cc21` here?
Its AC50 is 25.1 µM [rising, single point].

With `CCOC(=O)c1sc(C)nc1C1CCN(C(=O)OCC)CC1` as the molecule, how does the AC50 read?
The AC50 was 10 µM [falling, partial curve].

Which AC50 does the source give for `O=C(NCC(c1cccnc1)N1CCN(c2ccc(F)cc2)CC1)c1ccccc1` (stereo not drawn) here?
Its AC50 is 2.51 µM [rising, partial curve].

Which AC50 does the source give for `CC1CN(S(=O)(=O)c2cccc(-c3cn4ccccc4n3)c2)CC(C)O1` (stereo not drawn) here?
The AC50 was 15.8 µM [rising, single point].

With `NC(=O)c1c(NC(=O)COC(=O)CSc2nnc(-c3ccc(Cl)cc3)o2)sc2c1CCC2` as the molecule, how does the AC50 read?
Its AC50 is 0.00398 µM [falling, full curve, poor fit].

With `O=C(c1ccc(N2CCCC2=O)cc1)N1CCCCCC1` as the molecule, how does the AC50 read?
The AC50 was 0.0631 µM [rising, full curve, poor fit].

For `Cc1ccc2c(C(=O)CN3CCN(C4CCCCC4)CC3)c(C)[nH]c2c1`, which AC50 is on record?
The AC50 was 6.31 µM [falling, partial curve, poor fit].

With `CC(=O)Nc1cc(-c2nn(CC(=O)N3CCCCC3)c(=O)c3ccccc23)ccc1N1CCOCC1` as the molecule, how does the AC50 read?
Its AC50 is 15.8 µM [rising, partial curve].

With `Cc1cc(Nc2cccc(F)c2)n2nc(C)nc2n1` as the molecule, how does the AC50 read?
The AC50 was 12.6 µM [rising, partial curve].

With `Cc1cccc(N2CCN(C(=O)C3CCCN(S(=O)(=O)c4cnc[nH]4)C3)CC2C)c1` (stereo not drawn) as the molecule, how does the AC50 read?
Its AC50 is 0.631 µM [falling, full curve, poor fit].

Which AC50 does the source give for `CC(C)n1c2ccccc2c2nnc(SCC(=O)OCN3C(=O)c4ccccc4C3=O)nc21` here?
The AC50 was 0.501 µM [rising, full curve].

Which AC50 does the source give for `NC(=O)c1cc(-c2ccccc2)nc(N2CCCCCC2)n1` here?
The AC50 was 20 µM [rising, partial curve].

Which AC50 does the source give for `COc1ccc(OC)c(-c2nnc(NC(=O)C(C)Sc3nncn3C)s2)c1` (stereo not drawn) here?
The AC50 was 10 µM [rising, partial curve].

Which AC50 does the source give for `CCC(Sc1nnc(-c2ccc(C)c(Cl)c2)n1CC)C(=O)Nc1nccs1` (stereo not drawn) here?
The AC50 was 0.0398 µM [rising, full curve, poor fit].

With `Cc1cnc(C(=O)OCC(=O)Nc2oc(-c3ccccc3)c(-c3ccccc3)c2C#N)cn1` as the molecule, how does the AC50 read?
Its AC50 is 12.6 µM [rising, partial curve].

With `COC(=O)N1CCC2(CC1)CN(c1ccccc1)C2` as the molecule, how does the AC50 read?
The AC50 was 3.98 µM [rising, partial curve].

For `COC(=O)C1=C(CSc2nc3ccccc3o2)NC(=O)NC1c1cc(C)ccc1C` (stereo not drawn), which AC50 is on record?
The AC50 was 1.58 µM [rising, partial curve].
